# Experimental data: the supplement of paper PMC4604168 (melanoma cell lines)
# The list shows a part of the results. Many values rest on one well or one pass, so single values are uncertain.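 The apoptosis fraction was the count of cleaved-PARP antibody-stained nuclei relative to all DNA-stained nuclei, imaged in 1,536-well plates. Screening doses were set so most cells survived, and baseline and induced cleaved-PARP levels vary greatly across cell lines.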
# How the values were obtained:
# Experiment in all cases: cleaved PARP positive nuclei fraction relative to DMSO control; melanoma cells; higher = more apoptosis
# Details in all cases: library dose: low library concentration; 72 h
# [1] = tested on: CBRC034 (line from a melanoma biopsy)
# [2] = tested on: COLO792
# [3] = tested on: COLO800
# [4] = tested on: COLO829
# [5] = tested on: G361
# [6] = tested on: IPC-298
# [7] = tested on: IST-MEL1
# [8] = tested on: LB2518-MEL
# [9] = tested on: LOXIMVI
# [10] = tested on: MZ2-MEL
# [11] = tested on: MeWo
# [12] = tested on: RPMI7951
# [13] = tested on: RVH-421
# [14] = tested on: SkMel28
# [15] = tested on: SkMel30
# [16] = tested on: SkMel5
# [17] = tested on: UACC257
# [18] = tested on: UACC62
Structure (SMILES),cleaved PARP positive nuclei fraction [1] [%],cleaved PARP positive nuclei fraction [2] [%],cleaved PARP positive nuclei fraction [3] [%],cleaved PARP positive nuclei fraction [4] [%],cleaved PARP positive nuclei fraction [5] [%],cleaved PARP positive nuclei fraction [6] [%],cleaved PARP positive nuclei fraction [7] [%],cleaved PARP positive nuclei fraction [8] [%],cleaved PARP positive nuclei fraction [9] [%],cleaved PARP positive nuclei fraction [10] [%],cleaved PARP positive nuclei fraction [11] [%],cleaved PARP positive nuclei fraction [12] [%],cleaved PARP positive nuclei fraction [13] [%],cleaved PARP positive nuclei fraction [14] [%],cleaved PARP positive nuclei fraction [15] [%],cleaved PARP positive nuclei fraction [16] [%],cleaved PARP positive nuclei fraction [17] [%],cleaved PARP positive nuclei fraction [18] [%]
"C=CCn1c(=O)c2cnc(Nc3ccc(N4CCN(C)CC4)cc3)nc2n1-c1cccc(C(C)(C)O)n1 + CCN(CC)CCCCNc1ncc2cc(-c3cc(OC)cc(OC)c3)c(NC(=O)NC(C)(C)C)nc2n1 [PD173074] (first compound 0.02 µM, partner dose 0.1 µM)",65.5,107,122,129,218,57.6,86,123,36.8,30,27.3,163,47.2,231,67.6,93.5,78.9,88.5
"CC1(C)NC(=O)N(c2ccc([N+](=O)[O-])c(C(F)(F)F)c2)C1=O [nilutamide] + COc1cc2ncnc(Nc3ccc(Oc4ccccc4)cc3)c2cc1OC [SrcI1] (first compound 1 µM, partner dose 2 µM)",80.7,67.5,22.6,59.3,75.2,81.4,91.6,101,184,30.8,44.3,220,62.7,170,326,49.5,96.8,89.9
"O=C(Nc1cccc(Cl)c1)Nc1ncc(CCNc2ncnc3ccsc23)s1 + O=S(=O)(c1ccccc1)N(CC(F)(F)F)c1ccc(C(O)(C(F)(F)F)C(F)(F)F)cc1 [T0901317] (first compound 0.0008 µM, partner dose 1.4 µM)",61.8,35.8,188,102,55.4,133,179,82,110,123,56.7,96.1,141,125,230,66.7,210,174
"Cn1cncc1[C@@](N)(c1ccc(Cl)cc1)c1ccc2c(c1)c(-c1cccc(Cl)c1)cc(=O)n2C [tipifarnib] + COc1ccc(-c2ccc3c(N4CCOCC4)nc(N4C[C@@H](C)O[C@@H](C)C4)nc3n2)cc1CO [KU0063794] (first compound 0.01 µM, partner dose 0.02 µM)",93.8,120,229,125,101,129,431,95,32.8,68.7,59.4,91.9,147,72.3,122,68.7,455,150
"C[C@@H]1CCN(C(=O)CC#N)C[C@@H]1N(C)c1ncnc2[nH]ccc12 + COc1cc(N2CCC(N3CCN(C)CC3)CC2)ccc1Nc1ncc(Cl)c(Nc2ccccc2S(=O)(=O)C(C)C)n1 [NVP-TAE684] (first compound 1 µM, partner dose 0.08 µM)",89.2,112,84.8,117,143,26.8,27.9,71.3,40.7,111,170,91.4,104,85.3,64.2,69.2,163,79.9
"C[C@@H]1CCN(C(=O)CC#N)C[C@@H]1N(C)c1ncnc2[nH]ccc12 + N#Cc1c(O)c2c(-c3ccc(-c4ccccc4O)cc3)csc2[nH]c1=O [A769662] (first compound 1 µM, partner dose 2 µM)",89.6,43.6,158,90.2,125,40.5,106,77.8,13.6,143,73,31.9,46.9,148,12.9,25.6,72.9,50.4
"O=C(Nc1cccc(Cl)c1)Nc1ncc(CCNc2ncnc3ccsc23)s1 + N#Cc1c(O)c2c(-c3ccc(-c4ccccc4O)cc3)csc2[nH]c1=O [A769662] (first compound 0.0008 µM, partner dose 2 µM)",85.4,159,111,68.7,109,41.3,60.2,160,71.6,122,58.9,41.1,82.1,132,68.7,114,107,178
"Cc1cc(N2CCOCC2)cc2[nH]c(-c3c(NC[C@@H](O)c4cccc(Cl)c4)cc[nH]c3=O)nc12 + O=c1cc(-c2cccc3c2Sc2ccccc2S3)oc(N2CCOCC2)c1 [KU55933] (first compound 0.2 µM, partner dose 1 µM)",301,119,277,80.5,59,120,225,143,57,164,41.8,91.4,95.7,159,66.6,30.7,95.7,135
"C[C@@H]1CCN(C(=O)CC#N)C[C@@H]1N(C)c1ncnc2[nH]ccc12 + O=C(O)C(=O)Nc1sc2c(c1C(=O)O)CCNC2 [TCS401] (first compound 1 µM, partner dose 1.66667 µM)",176,97.1,184,45.4,70.4,123,523,94.1,115,55.3,53.9,81.4,90,108,27.5,68.1,102,77.3
